{"sequences": {"note": "Protein sequences, listed by entry. Tags and fused reporters are not part of them. Lines headed by an entry give the natural chain unless they say otherwise; changes in a name come on top. Residues count along the entry.", "UniProt P02454": "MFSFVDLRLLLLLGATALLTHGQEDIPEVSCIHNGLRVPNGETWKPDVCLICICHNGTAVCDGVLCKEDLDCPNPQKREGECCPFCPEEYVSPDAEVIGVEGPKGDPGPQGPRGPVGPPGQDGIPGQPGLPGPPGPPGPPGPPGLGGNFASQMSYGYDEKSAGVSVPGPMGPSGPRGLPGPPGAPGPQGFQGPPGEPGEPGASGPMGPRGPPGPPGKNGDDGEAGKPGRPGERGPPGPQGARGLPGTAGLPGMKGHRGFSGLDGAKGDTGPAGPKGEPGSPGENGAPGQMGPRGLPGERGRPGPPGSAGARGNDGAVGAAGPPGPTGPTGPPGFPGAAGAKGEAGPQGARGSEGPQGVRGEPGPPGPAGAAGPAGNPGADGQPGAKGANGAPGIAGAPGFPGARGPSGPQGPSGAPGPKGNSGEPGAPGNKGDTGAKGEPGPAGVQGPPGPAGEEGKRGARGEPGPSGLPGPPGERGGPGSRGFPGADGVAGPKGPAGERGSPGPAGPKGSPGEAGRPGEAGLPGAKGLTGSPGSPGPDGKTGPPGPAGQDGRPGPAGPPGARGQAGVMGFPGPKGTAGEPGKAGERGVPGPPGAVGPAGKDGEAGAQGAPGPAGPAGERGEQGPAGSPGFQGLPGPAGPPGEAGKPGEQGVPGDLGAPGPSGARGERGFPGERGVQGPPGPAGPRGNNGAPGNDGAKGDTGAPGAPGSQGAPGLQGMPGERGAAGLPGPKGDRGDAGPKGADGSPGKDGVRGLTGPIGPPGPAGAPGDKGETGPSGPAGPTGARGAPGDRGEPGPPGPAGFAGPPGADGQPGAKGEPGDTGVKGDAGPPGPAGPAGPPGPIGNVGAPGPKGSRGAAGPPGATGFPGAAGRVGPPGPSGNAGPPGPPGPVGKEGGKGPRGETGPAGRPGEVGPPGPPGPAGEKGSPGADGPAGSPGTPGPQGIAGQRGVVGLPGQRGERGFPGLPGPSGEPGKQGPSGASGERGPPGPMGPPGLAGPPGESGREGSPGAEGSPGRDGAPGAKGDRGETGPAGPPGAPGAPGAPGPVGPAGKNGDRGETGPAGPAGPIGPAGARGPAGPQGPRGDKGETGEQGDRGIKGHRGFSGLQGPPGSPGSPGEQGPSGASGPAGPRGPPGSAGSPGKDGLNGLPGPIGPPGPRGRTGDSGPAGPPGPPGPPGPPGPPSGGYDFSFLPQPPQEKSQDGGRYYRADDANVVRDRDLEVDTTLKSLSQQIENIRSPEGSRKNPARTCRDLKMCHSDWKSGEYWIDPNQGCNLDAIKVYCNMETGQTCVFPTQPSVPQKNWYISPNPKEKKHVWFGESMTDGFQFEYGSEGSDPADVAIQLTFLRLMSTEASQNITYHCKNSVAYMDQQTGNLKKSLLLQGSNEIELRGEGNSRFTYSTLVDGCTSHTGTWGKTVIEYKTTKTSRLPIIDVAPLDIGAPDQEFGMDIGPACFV", "UniProt P02466": "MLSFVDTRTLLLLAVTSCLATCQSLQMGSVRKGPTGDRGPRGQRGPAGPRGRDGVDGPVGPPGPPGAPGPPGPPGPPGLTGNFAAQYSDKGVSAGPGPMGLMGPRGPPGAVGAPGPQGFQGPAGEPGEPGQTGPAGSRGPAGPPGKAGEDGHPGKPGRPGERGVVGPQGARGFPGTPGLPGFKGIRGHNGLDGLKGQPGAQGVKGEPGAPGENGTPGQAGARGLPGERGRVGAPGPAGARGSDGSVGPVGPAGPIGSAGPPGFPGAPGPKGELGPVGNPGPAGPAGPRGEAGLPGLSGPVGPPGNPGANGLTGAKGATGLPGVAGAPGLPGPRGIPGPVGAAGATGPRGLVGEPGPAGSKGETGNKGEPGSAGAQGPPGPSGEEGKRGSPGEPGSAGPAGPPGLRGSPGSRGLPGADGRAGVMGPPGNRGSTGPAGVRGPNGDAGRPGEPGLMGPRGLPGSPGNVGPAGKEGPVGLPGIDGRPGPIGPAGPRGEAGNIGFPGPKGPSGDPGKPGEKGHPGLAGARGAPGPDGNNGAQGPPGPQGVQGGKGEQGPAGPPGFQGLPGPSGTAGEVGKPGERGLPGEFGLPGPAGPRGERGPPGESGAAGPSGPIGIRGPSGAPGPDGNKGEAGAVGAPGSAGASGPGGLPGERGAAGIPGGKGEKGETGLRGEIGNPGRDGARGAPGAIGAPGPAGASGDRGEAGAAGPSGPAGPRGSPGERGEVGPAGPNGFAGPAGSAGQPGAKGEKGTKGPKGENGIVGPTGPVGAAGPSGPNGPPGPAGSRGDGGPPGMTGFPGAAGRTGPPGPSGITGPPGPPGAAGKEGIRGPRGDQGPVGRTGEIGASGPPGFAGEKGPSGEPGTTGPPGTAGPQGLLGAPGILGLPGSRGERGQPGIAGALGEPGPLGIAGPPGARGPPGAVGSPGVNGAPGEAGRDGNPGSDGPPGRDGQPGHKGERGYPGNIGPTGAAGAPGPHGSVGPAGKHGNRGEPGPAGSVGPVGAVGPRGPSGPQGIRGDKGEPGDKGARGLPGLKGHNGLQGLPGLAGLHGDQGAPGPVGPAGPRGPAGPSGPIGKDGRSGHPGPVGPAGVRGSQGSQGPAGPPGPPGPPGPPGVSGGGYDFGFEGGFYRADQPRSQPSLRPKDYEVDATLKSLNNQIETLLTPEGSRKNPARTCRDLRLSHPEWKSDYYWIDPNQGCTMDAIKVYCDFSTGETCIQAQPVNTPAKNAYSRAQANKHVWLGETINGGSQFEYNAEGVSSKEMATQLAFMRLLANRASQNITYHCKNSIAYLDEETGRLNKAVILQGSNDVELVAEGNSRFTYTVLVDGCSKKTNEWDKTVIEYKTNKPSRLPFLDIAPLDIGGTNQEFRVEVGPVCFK", "UniProt P49747, residues 21-757": "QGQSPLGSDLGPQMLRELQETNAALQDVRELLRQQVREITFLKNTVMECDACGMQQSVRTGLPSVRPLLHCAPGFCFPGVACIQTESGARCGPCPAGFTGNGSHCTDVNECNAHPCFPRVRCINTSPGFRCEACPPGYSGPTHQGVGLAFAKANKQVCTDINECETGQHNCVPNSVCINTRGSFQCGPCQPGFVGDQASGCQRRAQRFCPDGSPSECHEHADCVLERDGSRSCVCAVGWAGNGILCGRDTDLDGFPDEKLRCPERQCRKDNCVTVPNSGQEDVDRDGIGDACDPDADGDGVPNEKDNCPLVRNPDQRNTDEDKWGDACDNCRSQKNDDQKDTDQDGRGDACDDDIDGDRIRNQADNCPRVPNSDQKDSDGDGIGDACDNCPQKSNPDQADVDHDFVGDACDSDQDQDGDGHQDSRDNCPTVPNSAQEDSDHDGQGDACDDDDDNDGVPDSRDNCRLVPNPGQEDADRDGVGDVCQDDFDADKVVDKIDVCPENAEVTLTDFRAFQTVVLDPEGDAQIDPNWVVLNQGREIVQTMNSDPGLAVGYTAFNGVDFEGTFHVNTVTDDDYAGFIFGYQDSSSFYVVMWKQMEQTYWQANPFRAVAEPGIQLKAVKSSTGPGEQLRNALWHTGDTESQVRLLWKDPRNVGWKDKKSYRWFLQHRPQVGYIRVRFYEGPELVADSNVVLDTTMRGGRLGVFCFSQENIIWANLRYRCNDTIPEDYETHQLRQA"}, "source": "paper PMC6249252", "about": "“COMP and TSP-4 interact specifically with the novel GXKGHR motif only found in fibrillar collagens” (Scientific Reports, 2018)", "biological_target": "rat tail collagen I (rat) (UniProt P02454+P02466)", "assay": "ELISA; foldon-stabilised collagen II library peptides and rat-tail collagen I coated at 10 ug/ml (500 ng per well) overnight at 4 °C; 200 nM pentameric COMP in TBS-T with 0.25% BSA, 1 h, room temperature; detected with anti-COMP antibody; both purified", "note": "Results are given in words; binding and its absence hold for the method and conditions named. Some results given as binding are weak or reduced against the parent protein; the word gives no strength.", "data": [{"substance": "cartilage oligomeric matrix protein (COMP), wild type, pentameric (from UniProt P49747 21-757)", "values": [{"measurement": "binding", "result": "binds"}]}]}
